Laboratory results reported in doi:10.1101/2023.04.13.536796.
No constants are given. Whether binding was seen depends on the method and setting. Binding seen in cells or lysates may run through a third protein. Some binding calls cover weakened binding; strength is not graded here.

Key:
Experiment in all cases: co-IP
Details in all cases: remark: other sources report otherwise
[1] = molecular target: T1, HRD1 (HMG-CoA reductase degradation 1), endogenous (human (endogenous in HEK293T)), Q86TM6
[2] = molecular target: T1, HRD1 (HMG-CoA reductase degradation 1), …; remark: listed apart in the source
[3] = molecular target: T1, HRD1 (HMG-CoA reductase degradation 1), …; remark: listed apart in the source

Measured: binding

B1: HERP1 (Homocysteine-induced ER protein 1), endogenous, Q15011 1-391 (protein)
chain: MESETEPEPVTLLVKSPNQRHRDLELSGDRGWSVGHLKAHLSRVYPERPRPEDQRLIYSGKLLLDHQCLRDLLPKQEKRHVLHLVCNVKSPSKMPEINAKVAESTEEPAGSNRGQYPEDSSSDGLRQREVLRNLSSPGWENISRPEAAQQAFQGLGPGFSGYTPYGWLQLSWFQQIYARQYYMQYLAATAASGAFVPPPSAQEIPVVSAPAPAPIHNQFPAENQPANQNAAPQVVVNPGANQNLRMNAQGGPIVEEDDEINRDWLDWTYSAATFSVFLSILYFYSSLSRFLMVMGATVVMYLHHVGWFPFRPRPVQNFPNDGPPPDVVNQDPNNNLQEGTDPETEDPNHLPPDRDVLDGEQTSPSFMSTAWLVFKTFFASLLPEGPPAIAN
binds: all assays above
